Laboratory results taken from patent publication US11369127B2, “Sweetener and flavor compositions, methods of making and methods of use thereof” (EPC Natural Products Co., Ltd., priority 2018, dated 2022).

Key:
[1] = Sensory evaluation of the samples prepared in Example 50 (Example 52); assay type: in vivo, human; set-up: key to Intensity of Smell: “+” for slight; “++” for moderate; “+++” for very strong
[2] = Sensory analysis of odor/smell, color and taste of Maillard reaction samples at 22° C. (Examples 55-62); assay type: in vivo, human
[3] = cited from earlier work
[4] = HPLC/DAD/MS detection of MRI (Amadori) products; conditions: LC/MS
[5] = Table 52.2, 1 ml water + 9 ml Glycerin, 0.67 h, 100° C.
[6] = Table 52.2, reaction per Table 50.2: 1 ml water + 9 ml Glycerin, 0.67 h, 100° C.
[7] = Table 52.5, 1 ml water + 9 ml Glycerin, 2.0 h, 120° C.
[8] = Table 52.5, reaction per Table 50.5: 1 ml water + 9 ml Glycerin, 2.0 h, 120° C.
[9] = Table 52.7, Glycerin 10 ml, 1 h, 120° C.
[10] = Table 52.7, reaction per Table 50.7: Glycerin 10 ml, 1 h, 120° C.
[11] = negative controls (no carbohydrate source), 10 ml glycerin/water=9:1, 100° C. for 40 minutes
[12] = before reaction, 10 ml KH2PO4, pH 7.8 (Example 57)
[13] = Table 52.1, 1 ml water + 9 ml Glycerin, 1 h, 100° C.
[14] = Table 52.1, reaction per Table 50.1: 1 ml water + 9 ml Glycerin, 1 h, 100° C.
[15] = volatile substances found by GC/MS in RCSE-MRP-CI
[16] = after reaction, 10 ml KH2PO4, pH 7.8, 2.5 h, 120° C. (Example 57)

C[C@H](N)C(=O)O [0.1 mMol Ala]
Color [1, 5]: No Color | Smell [1, 6]: Agar

O=C[C@H](O)[C@H]1OC(=O)[C@@H](O)[C@H]1O [0.1 mMol GlucLac]
Color [1, 7]: Almost black | Intensity of Smell [1, 7]: +++ | Taste [1, 7]: Bitter | Smell [1, 8]: Burnt sugar

NCCCC[C@H](N)C(=O)O [0.1 mMol Lys]
Color ([1]; Table 52.3, 1 ml water + 9 ml Glycerin, 0.67 h, 100° C.): Brown | Smell ([1]; Table 52.3, reaction per Table 50.3: 1 ml water + 9 ml Glycerin, 0.67 h, 100° C.): Popcorn

N[C@@H](Cc1ccccc1)C(=O)O [0.1 mMol Phe]
Color [1, 5]: Slightly Yellow | Color [1, 7]: Slightly Yellow | Taste [1, 7]: sweet | Smell [1, 8]: Caramel, burnt

C=C1C[C@@]23CC[C@H]4[C@@](C)(CCC[C@@]4(C)C(=O)O[C@@H]4O[C@H](CO)[C@@H](O)[C@H](O)[C@H]4O)[C@@H]2CC[C@]1(O[C@@H]1O[C@H](CO)[C@@H](O)[C@H](O[C@@H]2O[C@H](CO)[C@@H](O)[C@H](O)[C@H]2O)[C@H]1O[C@@H]1O[C@H](CO)[C@@H](O)[C@H](O)[C@H]1O)C3 [0.05 mMol Reb-A]
Color [1, 5]: Slightly Yellow | Smell [1, 6]: neutral/unpleasant

N[C@@H](Cc1ccccc1)C(=O)O [3.3 mMol Phe]
Color ([1]; Table 52.6, Glycerin 10 ml, 100° C., 5 min): No color | Color ([1]; Table 52.6, Glycerin 10 ml, 100° C., 10 min): No color | Color ([1]; Table 52.6, Glycerin 10 ml, 100° C., 20 min): Slightly Yellow | Smell ([1]; Table 52.6, reaction per Table 50.6: Glycerin 10 ml, 100° C., 5 min): Slightly bloomy | Color [1, 9]: Brown | Smell [1, 10]: flowery/bloomy

C[C@H](N)C(=O)O [8.91 mg Ala]
Color [2, 11]: No color | Smell [2, 11]: Neutral, slightly Agar | Taste [2, 11]: Slightly sweet

OC[C@H]1OC(O)[C@H](O)[C@@H](O)[C@@H]1O (stereo partly shown) [9 mg Glucose]
Color [2, 12]: No color | Smell [2, 12]: neutral | Taste [2, 12]: Sweet

OC[C@H]1OC(O)[C@H](O)[C@@H](O)[C@@H]1O (stereo partly shown) [10 mMol Glu]
Color ([1]; Table 52.6, Glycerin 10 ml, 100° C., 40 min): Slightly Yellow | Color [1, 9]: No color | Smell [1, 10]: Slightly Caramel

N[C@@H](CO)C(=O)O [10.5 mg Ser]
Color [2, 11]: Slightly Yellow | Smell [2, 11]: Lotus flower | Taste [2, 11]: Slightly sweet

O=C(O)[C@@H]1CCCN1 [11.5 mg Pro]
Color [2, 11]: Slightly Yellow | Taste [2, 11]: Slightly sweet

C[C@@H](O)[C@H](N)C(=O)O [11.91 mg Thr]
Smell [2, 11]: Vanilla, butter | Taste [2, 11]: Slightly sweet

N[C@@H](CS)C(=O)O [12.1 mg Cys]
Color [2, 11]: Slightly Yellow | Smell [2, 11]: Unpleasant (sulfur) | Taste [2, 11]: Slightly sweet

CC[C@H](C)[C@H](N)C(=O)O [13.11 mg Ile]
Color [2, 11]: No color | Smell [2, 11]: Coffee | Taste [2, 11]: Slightly sweet

NCCCC[C@H](N)C(=O)O [14.7 mg Lys]
Color [2, 11]: brown | Smell [2, 11]: Popcorn | Taste [2, 11]: Slightly sweet

CSCC[C@H](N)C(=O)O [14.9 mg Met]
Smell [2, 11]: Sulfuric | Taste [2, 11]: Slightly sweet

N[C@@H](Cc1ccccc1)C(=O)O [16.5 mg Phe]
Color ([2]; after reaction, 10 ml KH2PO4, pH 7.8, 2.5 h, 120° C. (Example 58)): Slightly Yellow | Taste ([2]; after reaction, 10 ml KH2PO4, pH 7.8, 2.5 h, 120° C., after dilution 1:20 (Example 58)): Sweet | Color [2, 12]: No color | Color ([2]; before reaction, 10 ml KH2PO4, pH 7.8 (Example 58)): No color | Smell [2, 11]: Bloomy, caramel | Taste [2, 11]: Slightly sweet

N[C@@H](Cc1ccc(O)cc1)C(=O)O [18.1 mg Tyr]
Color [2, 11]: No color | Smell [2, 11]: neutral | Taste [2, 11]: Slightly sweet

N[C@@H](Cc1c[nH]c2ccccc12)C(=O)O [20.42 mg Try]
Color [2, 11]: Slightly Yellow | Smell [2, 11]: Unpleasant (fecal) | Taste [2, 11]: Slightly sweet

N[C@@H](CCC(=O)O)C(=O)O [167 mMol Glu]
Color [1, 13]: Slightly Yellow | Taste [1, 13]: Sweet | Smell [1, 14]: caramel

CC1(C)[C@@H]2CC[C@H](CO)[C@H]1C2 [(−)-cis-Myrtanol]
Main Flavor [3, 15]: Flower

O=C[C@H](O)[C@@H](O)[C@H](O)[C@H](O)C(=O)O [Glucuronic Acid]
Color [2, 16]: Deep Yellow

O=C1O[C@@H]2[C@@H](O)[C@H](O)O[C@@H]2C1O (stereo partly shown) [Glucuronolactone]
Color [2, 16]: Deep Yellow | Smell [2, 16]: Burnt sugar | Taste [2, 16]: Bitter

C=C(C)[C@H]1CC=C(C)CC1 [Limonene]
Main Flavor [3, 15]: citrus

N[C@@H](Cc1ccccc1)C(=O)O [Phe 60 mMol]
Color [1, 13]: Slightly Yellow | Taste [1, 13]: Sweet | Smell [1, 14]: flowery/bloomy-caramel

N[C@H](Cc1ccccc1)C(=O)O [Phe]
Color [2, 16]: Slightly Yellow | Smell [2, 16]: Caramel, burnt | Taste [2, 16]: sweet

OCCc1ccccc1 [Phenylethyl Alcohol]
Main Flavor ([3]; volatile substances found by GC/MS in CSE / RCSE): Flower

C=CC1(C)CCC(C(C)(C)O)O1 (stereo not drawn) [trans-Linalool oxide]
Main Flavor [3, 15]: Wood

CC1=CC[C@@H](C(C)(C)O)CC1 [à-Terpineol]
Main Flavor [3, 15]: Flower

Asp + Glu
MRI (Amadori) products detected during the experiments: Detected in Experiments [4]: Yes

Phe + Glu
MRI (Amadori) products detected during the experiments: Detected in Experiments [4]: Yes

Read-outs that look alike come from different tables or passages of the source.
